# Experimental data reported in the supplement of paper PMC8728848.
# The other results are listed elsewhere or left out.
# B1: Flo11 (Saccharomyces cerevisiae), P08640 (protein)
# chain: MQRPFLLAYLVLSLLFNSALGFPTALVPRGSSEGTSCNSIVNGCPNLDFNWHMDQQNIMQYTLDVTSVSWVQDNTYQITIHVKGKENIDLKYLWSLKIIGVTGPKGTVQLYGYNENTYLIDNPTDFTATFEVYATQDVNSCQVWMPNFQIQFEYLQGSAAQYASSWQWGTTSFDLSTGCNNYDNQGHSQTDFPGFYWNIDCDNNCGGTKSSTTTSSTSESSTTTSSTSESSTTTSSTSESSTTTSSTSESSTSSSTTAPATPTTTSCTKEKPTPPTTTSCTKEKPTPPHHDTTPCTKKKTTTSKTCTKKTTTPVPTPSSSTTESSSAPVPTPSSSTTESSSAPVTSSTTESSSAPVPTPSSSTTESSSAPVTSSTTESSSAPVTSSTTESSSAPVPTPSSSTTESSSAPVTSSTTESSSAPVTSSTTESSSAPVTSSTTESSSAPVTSSTTESSSAPVPTPSSSTTESSSAPVTSSTTESSSAPVPTPSSSTTESSSAPVTSSTTESSSAPVPTPSSSTTESSSAPAPTPSSSTTESSSAPVTSSTTESSSAPVPTPSSSTTESSSTPVTSSTTESSSAPVPTPSSSTTESSSAPVPTPSSSTTESSSAPAPTPSSSTTESSSAPVTSSTTESSSAPVPTPSSSTTESSSAPVPTPSSSTTESSSAPVPTPSSSTTESSSAPVTSSTTESSSAPVTSSTTESSSAPVPTPSSSTTESSSAPVPTPSSSTTESSSAPVPTPSSSTTESSSAPVTSSTTESSSAPVPTPSSSTTESSSAPVPTPSSSTTESSSAPVPTPSSSTTESSVAPVPTPSSSSNITSSAPSSTPFSSSTESSSVPVPTPSSSTTESSSAPVSSSTTESSVAPVPTPSSSSNITSSAPSSIPFSSTTESFSTGTTVTPSSSKYPGSQTETSVSSTTETTIVPTKTTTSVTTPSTTTITTTVCSTGTNSAGETTSGCSPKTVTTTVPTTTTTSVTTSSTTTITTTVCSTGTNSAGETTSGCSPKTITTTVPCSTSPSETASESTTTSPTTPVTTVVSTTVVTTEYSTSTKPGGEITTTFVTKNIPTTYLTTIAPTPSVTTVTNFTPTTITTTVCSTGTNSAGETTSGCSPKTVTTTVPCSTGTGEYTTEATTLVTTAVTTTVVTTESSTGTNSAGKTTTGYTTKSVPTTYVTTLAPSAPVTPATNAVPTTITTTECSAATNAAGETTSVCSAKTIVSSASAGENTAPSATTPVTTAIPTTVITTESSVGTNSAGETTTGYTTKSIPTTYITTLIPGSNGAKNYETVATATNPISIKTTSQLATTASASSVAPVVTSPSLTGPLQSASGSAVATYSVPSISSTYQGAANIKVLGNFMWLLLALPVVF
# What was measured:
# Experiment in all cases: glycan array binding signal (z-score within array); higher = stronger binding
# Details in all cases: glycan notation: IUPAC condensed, linker removed
# [1] = biological target: Fuc(a1-2)[Gal(a1-3)]Gal(b1-4)Glc
# Procedure, shortened: (§1)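 The Consortium for Functional Glycomics database supplied 3228 glycan arrays, of which those lacking an available protein sequence were dropped. The binding signal, a within-array Z-score, was averaged across arrays of the same protein sequence and across linkers. Negative scores can be read as non-binding.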
# [2] = biological target: Fuc(a1-2)[Gal(a1-3)]Gal(b1-4)GlcNAc
# Procedure, shortened: as §1
# [3] = biological target: Fuc(a1-2)[Gal(a1-3)]Gal(b1-4)GlcNAc(b1-2)Man(a1-3)[Fuc(a1-2)[Gal(a1-3)]Gal(b1-4)GlcNAc(b1-2)Man(a1-6)]Man(b1-4)GlcNAc(b1-4)GlcNAc
# Procedure, shortened: as §1
# [4] = biological target: Fuc(a1-2)[Gal(a1-3)]Gal(b1-4)GlcNAc(b1-2)Man(a1-3)[Fuc(a1-2)[Gal(a1-3)]Gal(b1-4)GlcNAc(b1-2)Man(a1-6)]Man(b1-4)GlcNAc(b1-4)[Fuc(a1-6)]GlcNAc
# Procedure, shortened: as §1
# [5] = biological target: Fuc(a1-2)[Gal(a1-3)]Gal(b1-4)GlcNAc(b1-3)GalNAc
# Procedure, shortened: as §1
# [6] = biological target: Fuc(a1-2)[Gal(a1-3)]Gal(b1-4)[Fuc(a1-3)]Glc
# Procedure, shortened: as §1
# [7] = biological target: Fuc(a1-2)[Gal(a1-3)]Gal(b1-4)[Fuc(a1-3)]GlcNAc
# Procedure, shortened: as §1
# [8] = biological target: Fuc(a1-2)[Gal(a1-3)]Gal(b1-4)[Fuc(a1-3)]GlcNAc(b1-3)GalNAc
# Procedure, shortened: as §1
# [9] = biological target: Fuc(a1-2)[Gal(a1-4)]Gal(b1-4)GlcNAc
# Procedure, shortened: as §1
# [10] = biological target: Fuc(a1-2)[GalNAc(a1-3)]Gal
# Procedure, shortened: as §1
# [11] = biological target: Fuc(a1-2)[GalNAc(a1-3)]Gal(b1-3)GalNAc(a1-3)[Fuc(a1-2)]Gal(b1-4)GlcNAc
# Procedure, shortened: as §1
# [12] = biological target: Fuc(a1-2)[GalNAc(a1-3)]Gal(b1-3)GlcNAc
# Procedure, shortened: as §1
# [13] = biological target: Fuc(a1-2)[GalNAc(a1-3)]Gal(b1-3)GlcNAc(b1-2)Man(a1-3)[Fuc(a1-2)[GalNAc(a1-3)]Gal(b1-3)GlcNAc(b1-2)Man(a1-6)]Man(b1-4)GlcNAc(b1-4)GlcNAc
# Procedure, shortened: as §1
# [14] = biological target: Fuc(a1-2)[GalNAc(a1-3)]Gal(b1-3)GlcNAc(b1-2)Man(a1-3)[Fuc(a1-2)[GalNAc(a1-3)]Gal(b1-3)GlcNAc(b1-2)Man(a1-6)]Man(b1-4)GlcNAc(b1-4)[Fuc(a1-6)]GlcNAc
# Procedure, shortened: as §1
# [15] = biological target: Fuc(a1-2)[GalNAc(a1-3)]Gal(b1-3)GlcNAc(b1-3)GalNAc
# Procedure, shortened: as §1
# [16] = biological target: Fuc(a1-2)[GalNAc(a1-3)]Gal(b1-4)Glc
# Procedure, shortened: as §1
# [17] = biological target: Fuc(a1-2)[GalNAc(a1-3)]Gal(b1-4)GlcNAc
# Procedure, shortened: as §1
# [18] = biological target: Fuc(a1-2)[GalNAc(a1-3)]Gal(b1-4)GlcNAc(b1-2)Man(a1-3)[Fuc(a1-2)[GalNAc(a1-3)]Gal(b1-4)GlcNAc(b1-2)Man(a1-6)]Man(b1-4)GlcNAc(b1-4)GlcNAc
# Procedure, shortened: as §1
# [19] = biological target: Fuc(a1-2)[GalNAc(a1-3)]Gal(b1-4)GlcNAc(b1-2)Man(a1-3)[Fuc(a1-2)[GalNAc(a1-3)]Gal(b1-4)GlcNAc(b1-2)Man(a1-6)]Man(b1-4)GlcNAc(b1-4)[Fuc(a1-6)]GlcNAc
# Procedure, shortened: as §1
# [20] = biological target: Fuc(a1-2)[GalNAc(a1-3)]Gal(b1-4)GlcNAc(b1-3)Gal(b1-4)GlcNAc
# Procedure, shortened: as §1
# [21] = biological target: Fuc(a1-2)[GalNAc(a1-3)]Gal(b1-4)GlcNAc(b1-3)Gal(b1-4)GlcNAc(b1-3)Gal(b1-4)GlcNAc
# Procedure, shortened: as §1
# [22] = biological target: Fuc(a1-2)[GalNAc(a1-3)]Gal(b1-4)GlcNAc(b1-3)GalNAc
# Procedure, shortened: as §1
binder,measurement,setting,value
B1,glycan array binding signal (z-score),[1],0.319
same,glycan array binding signal (z-score),[2],-0.051
same,glycan array binding signal (z-score),[3],-1.04
same,glycan array binding signal (z-score),[4],0.146
same,glycan array binding signal (z-score),[5],-1.11
same,glycan array binding signal (z-score),[6],-0.826
same,glycan array binding signal (z-score),[7],0.665
same,glycan array binding signal (z-score),[8],1.12
same,glycan array binding signal (z-score),[9],-0.665
same,glycan array binding signal (z-score),[10],0.297
same,glycan array binding signal (z-score),[11],1.68
same,glycan array binding signal (z-score),[12],0.142
same,glycan array binding signal (z-score),[13],-0.897
same,glycan array binding signal (z-score),[14],-0.882
same,glycan array binding signal (z-score),[15],1.14
same,glycan array binding signal (z-score),[16],-0.166
same,glycan array binding signal (z-score),[17],-0.692
same,glycan array binding signal (z-score),[18],2.17
same,glycan array binding signal (z-score),[19],-1.28
same,glycan array binding signal (z-score),[20],-0.327
same,glycan array binding signal (z-score),[21],-0.847
same,glycan array binding signal (z-score),[22],-0.713

# 2 records drawn at random from the list so far, as already listed:
binder,measurement,setting,value
B1,glycan array binding signal (z-score),[3],-1.04
same,glycan array binding signal (z-score),[19],-1.28
